Assay results reported in patent US20030212251 (published 2003).

Test: Boc solid-phase peptide synthesis; methylbenzhydrylamine resin; diisopropylcarbodiimide; TBTU for recoupling
Details: whole synthesis

Q: Which crude yield does the source give for “Acetil-Toac-Ser-Tyr-Ser-Nle-Glu-His-DPhe-Arg-Trp-Gly-Lys-Pro-Val-CONH2 (FRWGKPV; N-acetyl-Toac, Nle, D-Phe, C-terminal amide; printed: Phe-Arg-Trp-Gly-Lys-Pro-Val-)” here?
A: Its crude yield is 83%.
